In this data set the test system is single-stranded miR-145. The data set can be described thus: Isothermal titration calorimetry (ITC), Waters Nano-ITC. To be noted: Multiple Sites model. Format: binding. The text has this: Isothermal titration calorimetry (ITC) utilizes the principle of power compensation to accurately obtain the enthalpy change of intermolecular interactions within a broad concentration range in the system through a single concentration scan. It measures the heat change during binding and provides the complete thermodynamic characteristics of nucleic acid-ligand interactions. Quantifying the thermodynamic properties and energy of the complex is essential for analyzing the molecular basis of the interaction between the microRNA miR-145 and the compound. The present invention uses the Waters Nano-ITC calorimeter to in vitro verify the nucleic acid-small molecule interactions.
The experimental process involves placing 300µL of a 50µM single-stranded miR-145 solution in a temperaturecontrolled sample chamber, and using small molecule A-3-6 (i.e., the 2-phenyl-N-(1H-pyrrolo[2,3-c]pyridine-5-yl)acetamide obtained in Example 9) as the ligand in a 50µL, 500µM concentration, which is gradually injected (or titrated) into the sample chamber. The heat change is measured by comparing the sample chamber with a reference chamber, showing either an endothermic or exothermic peak. The interaction pattern between the two reactants is fitted using the software provided by the instrument, and it directly calculates the reaction binding enthalpy (ΔH, kJ/mol), reaction binding entropy (ΔS, J/(mol·K)), number of binding sites (n), and binding equilibrium constant (Ka, M), obtaining the kinetic data. […] The calculated number of binding sites (nSite) for A-3-6 with miR-145 solution are n1=3 and n2=1.8, with Kd1=7.017E-8 and Kd2=7.544E-9, ΔH1=-69.08 and ΔH2=-137.2, ΔS1=-9.474E1 and ΔS2=-3.048E2.
On the technique in general: In ITC the heat of successive injections is recorded.

We go through one compound from patent publication EP4635953A1, “PYRROLOPYRIDINE DERIVATIVE, AND PHARMACEUTICAL COMPOSITION THEREOF AND USE THEREOF” (Iregene Therapeutics Co., Ltd, priority 2022, dated 2024).

With `O=C(Cc1ccccc1)Nc1cc2cc[nH]c2cn1` [Compound A-3-6, 2-Phenyl-N-(1H-Pyrrolo[2,3-c]pyridin-5-yl)acetamide], where the note is “500µM ligand titrated into 50µM miR-145, site 1”, the “number of binding sites (nSite) n1” value amounted to 3. For the same compound, the “number of binding sites (nSite) n2” value (500µM ligand titrated into 50µM miR-145, site 2) is given as 1.8. Further, where the note is “site 1”, the “ΔH1 (reaction binding enthalpy)” value is -16.51 kcal/mol and the “ΔS1 (reaction binding entropy)” value was -9.474E1 J/(mol·K). Besides, where the note is “site 2”, the “ΔH2 (reaction binding enthalpy)” value is -32.79 kcal/mol and the “ΔS2 (reaction binding entropy)” value is listed as -3.048E2 J/(mol·K).
